Reference: PMC9695041, “The Anti-Breast Cancer Activity of Dihydroartemisinin-5-methylisatin Hybrids Tethered via Different Carbon Spacers” (Molecules, 2022)

How the values were obtained:
Format in all cases: cell-based
[1] = test system: MCF-7 breast cancer cell line; assay: MTT antiproliferative assay, MCF-7
[2] = test system: MDA-MB-231 breast cancer cell line; assay: MTT antiproliferative assay, MDA-MB-231
[3] = test system: MCF-7/ADR breast cancer cell line; assay: MTT antiproliferative assay, MCF-7/ADR
[4] = test system: MDA-MB-231/ADR breast cancer cell line; assay: MTT antiproliferative assay, MDA-MB-231/ADR

3-(Methoxyimino)-1-(4-(((3R,5aS,6R,8aS,9R,12R,12aR)-3,6,9-trimethyldecahydro-12H-3,12-epoxy[1,2]dioxepino[4,3-i]isochromen-10-yl)oxy)butyl)indolin-2-one [Hybrid 7h]
SI1: selectivity index IC50(MCF-10A)/IC50(MCF-7) [1]: >1.17
SI2: selectivity index IC50(MCF-10A)/IC50(MDA-MB-231) [2]: >1.35
RI1: resistance index IC50(MCF-7/ADR)/IC50(MCF-7) [3]: 0.91
RI2: resistance index IC50(MDA-MB-231/ADR)/IC50(MDA-MB-231) [4]: 1.09

COc1cccc2c1C(=O)c1c(O)c3c(c(O)c1C2=O)C[C@@](O)(C(=O)CO)C[C@@H]3O[C@H]1C[C@H](N)[C@H](O)[C@H](C)O1 [ADR, Adriamycin, reference compound]
RI1: resistance index IC50(MCF-7/ADR)/IC50(MCF-7) [3]: >5.29
RI2: resistance index IC50(MDA-MB-231/ADR)/IC50(MDA-MB-231) [4]: >22.42

C[C@@H]1CC[C@H]2[C@@H](C)C(=O)O[C@@H]3O[C@@]4(C)CC[C@@H]1[C@]32OO4 [ART, Artemisinin]
RI1: resistance index IC50(MCF-7/ADR)/IC50(MCF-7) [3]: >1.14
RI2: resistance index IC50(MDA-MB-231/ADR)/IC50(MDA-MB-231) [4]: >1.38

C[C@H]1[C@@H](O)O[C@@H]2O[C@@]3(C)CC[C@H]4[C@H](C)CC[C@@H]1[C@@]24OO3 [DHA, Dihydroartemisinin]
RI1: resistance index IC50(MCF-7/ADR)/IC50(MCF-7) [3]: 1.08
RI2: resistance index IC50(MDA-MB-231/ADR)/IC50(MDA-MB-231) [4]: 1.19

Cc1ccc2c(c1)C(=O)C(=O)N2CCOC1O[C@@H]2O[C@@]3(C)CC[C@H]4[C@H](C)CC[C@@H]([C@H]1C)[C@@]24OO3 (stereo partly drawn) [Hybrid 6a, 5-Methyl-1-(2-(((3R,5aS,6R,8aS,9R,12R,12aR)-3,6,9-trimethyldecahydro-12H-3,12-epoxy[1,2]dioxepino[4,3-i]isochromen-10-yl)oxy)ethyl)indoline-2,3-dione]
RI1: resistance index IC50(MCF-7/ADR)/IC50(MCF-7) [3]: 0.80
RI2: resistance index IC50(MDA-MB-231/ADR)/IC50(MDA-MB-231) [4]: 0.92

Cc1ccc2c(c1)C(=O)C(=O)N2CCCOC1O[C@@H]2O[C@@]3(C)CC[C@H]4[C@H](C)CC[C@@H]([C@H]1C)[C@@]24OO3 (stereo partly drawn) [Hybrid 6b, 5-Methyl-1-(3-(((3R,5aS,6R,8aS,9R,12R,12aR)-3,6,9-trimethyldecahydro-12H-3,12-epoxy[1,2]dioxepino[4,3-i]isochromen-10-yl)oxy)propyl)indoline-2,3-dione]
RI1: resistance index IC50(MCF-7/ADR)/IC50(MCF-7) [3]: <0.87

Cc1ccc2c(c1)C(=O)C(=O)N2CCCCOC1O[C@@H]2O[C@@]3(C)CC[C@H]4[C@H](C)CC[C@@H]([C@H]1C)[C@@]24OO3 (stereo partly drawn) [Hybrid 6c, 5-Methyl-1-(4-(((3R,5aS,6R,8aS,9R,12R,12aR)-3,6,9-trimethyldecahydro-12H-3,12-epoxy[1,2]dioxepino[4,3-i]isochromen-10-yl)oxy)butyl)indoline-2,3-dione]
RI1: resistance index IC50(MCF-7/ADR)/IC50(MCF-7) [3]: 0.83
RI2: resistance index IC50(MDA-MB-231/ADR)/IC50(MDA-MB-231) [4]: 1.05

Cc1ccc2c(c1)C(=NO)C(=O)N2CCOC1O[C@@H]2O[C@@]3(C)CC[C@H]4[C@H](C)CC[C@@H]([C@H]1C)[C@@]24OO3 (stereo partly drawn) [Hybrid 7a, 3-(Hydroxyimino)-5-methyl-1-(2-(((3R,5aS,6R,8aS,9R,12R,12aR)-3,6,9-trimethyldecahydro-12H-3,12-epoxy[1,2]dioxepino[4,3-i]isochromen-10-yl)oxy)ethyl)indolin-2-one]
RI1: resistance index IC50(MCF-7/ADR)/IC50(MCF-7) [3]: 1.03
RI2: resistance index IC50(MDA-MB-231/ADR)/IC50(MDA-MB-231) [4]: 1.23

Cc1ccc2c(c1)C(=NO)C(=O)N2CCCOC1O[C@@H]2O[C@@]3(C)CC[C@H]4[C@H](C)CC[C@@H]([C@H]1C)[C@@]24OO3 (stereo partly drawn) [Hybrid 7b, 3-(Hydroxyimino)-5-methyl-1-(3-(((3R,5aS,6R,8aS,9R,12R,12aR)-3,6,9-trimethyldecahydro-12H-3,12-epoxy[1,2]dioxepino[4,3-i]isochromen-10-yl)oxy)propyl)indolin-2-one]
RI1: resistance index IC50(MCF-7/ADR)/IC50(MCF-7) [3]: 0.95
RI2: resistance index IC50(MDA-MB-231/ADR)/IC50(MDA-MB-231) [4]: 0.85

Cc1ccc2c(c1)C(=NO)C(=O)N2CCCCOC1O[C@@H]2O[C@@]3(C)CC[C@H]4[C@H](C)CC[C@@H]([C@H]1C)[C@@]24OO3 (stereo partly drawn) [Hybrid 7c, 3-(Hydroxyimino)-5-methyl-1-(4-(((3R,5aS,6R,8aS,9R,12R,12aR)-3,6,9-trimethyldecahydro-12H-3,12-epoxy[1,2]dioxepino[4,3-i]isochromen-10-yl)oxy)butyl)indolin-2-one]
RI1: resistance index IC50(MCF-7/ADR)/IC50(MCF-7) [3]: 1.06
RI2: resistance index IC50(MDA-MB-231/ADR)/IC50(MDA-MB-231) [4]: 1.07

Cc1ccc2c(c1)C(=NNC(N)=O)C(=O)N2CCOC1O[C@@H]2O[C@@]3(C)CC[C@H]4[C@H](C)CC[C@@H]([C@H]1C)[C@@]24OO3 (stereo partly drawn) [Hybrid 7d, 2-(5-Methyl-2-oxo-1-(2-(((3R,5aS,6R,8aS,9R,12R,12aR)-3,6,9-trimethyldecahydro-12H-3,12-epoxy[1,2]dioxepino[4,3-i]isochromen-10-yl)oxy)ethyl)indolin-3-ylidene)hydrazine-1-carboxamide]
RI1: resistance index IC50(MCF-7/ADR)/IC50(MCF-7) [3]: 1.22
RI2: resistance index IC50(MDA-MB-231/ADR)/IC50(MDA-MB-231) [4]: 1.10

Cc1ccc2c(c1)C(=NNC(N)=O)C(=O)N2CCCCOC1O[C@@H]2O[C@@]3(C)CC[C@H]4[C@H](C)CC[C@@H]([C@H]1C)[C@@]24OO3 (stereo partly drawn) [Hybrid 7e, 2-(5-Methyl-2-oxo-1-(4-(((3R,5aS,6R,8aS,9R,12R,12aR)-3,6,9-trimethyldecahydro-12H-3,12-epoxy[1,2]dioxepino[4,3-i]isochromen-10-yl)oxy)butyl)indolin-3-ylidene)hydrazine-1-carboxamide]
RI1: resistance index IC50(MCF-7/ADR)/IC50(MCF-7) [3]: 1.08
RI2: resistance index IC50(MDA-MB-231/ADR)/IC50(MDA-MB-231) [4]: 1.11

Cc1ccc2c(c1)C(=NNC(N)=S)C(=O)N2CCCOC1O[C@@H]2O[C@@]3(C)CC[C@H]4[C@H](C)CC[C@@H]([C@H]1C)[C@@]24OO3 (stereo partly drawn) [Hybrid 7f, 2-(5-Methyl-2-oxo-1-(3-(((3R,5aS,6R,8aS,9R,12R,12aR)-3,6,9-trimethyldecahydro-12H-3,12-epoxy[1,2]dioxepino[4,3-i]isochromen-10-yl)oxy)propyl)indolin-3-ylidene)hydrazine-1-carbothioamide]
RI1: resistance index IC50(MCF-7/ADR)/IC50(MCF-7) [3]: 0.78
RI2: resistance index IC50(MDA-MB-231/ADR)/IC50(MDA-MB-231) [4]: 1.06

Cc1ccc2c(c1)C(=NNC(N)=S)C(=O)N2CCCCOC1O[C@@H]2O[C@@]3(C)CC[C@H]4[C@H](C)CC[C@@H]([C@H]1C)[C@@]24OO3 (stereo partly drawn) [Hybrid 7g, 2-(5-Methyl-2-oxo-1-(4-(((3R,5aS,6R,8aS,9R,12R,12aR)-3,6,9-trimethyldecahydro-12H-3,12-epoxy[1,2]dioxepino[4,3-i]isochromen-10-yl)oxy)butyl)indolin-3-ylidene)hydrazine-1-carbothioamide]
RI1: resistance index IC50(MCF-7/ADR)/IC50(MCF-7) [3]: 1.05
RI2: resistance index IC50(MDA-MB-231/ADR)/IC50(MDA-MB-231) [4]: 1.16

CCON=C1C(=O)N(CCOC2O[C@@H]3O[C@@]4(C)CC[C@H]5[C@H](C)CC[C@@H]([C@H]2C)[C@@]35OO4)c2ccc(C)cc21 (stereo partly drawn) [Hybrid 7i, 3-(Ethoxyimino)-5-methyl-1-(2-(((3R,5aS,6R,8aS,9R,12R,12aR)-3,6,9-trimethyldecahydro-12H-3,12-epoxy[1,2]dioxepino[4,3-i]isochromen-10-yl)oxy)ethyl)indolin-2-one]
RI1: resistance index IC50(MCF-7/ADR)/IC50(MCF-7) [3]: 0.89
RI2: resistance index IC50(MDA-MB-231/ADR)/IC50(MDA-MB-231) [4]: 1.03
